Laboratory results as given in PubChem BioAssay AID2685 (National Center for Advancing Translational Sciences (NCATS), 2010).
The other results are listed elsewhere or left out. These are further read-outs of the screen, such as a control signal, another cell line or another target. No call is given for them. Compounds called inactive in the main read-out are mostly missing here. Potencies come from curve fits of mixed quality, noted in brackets.

Experiment: qHTS Assay for Lipid Storage Modulators in Drosophila S3 Cells;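 for cell number change: cells counted by Cell Tracker Red CMTPX staining in the red channel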
Conditions: BODIPY lipid droplet fluorescence, 18-24 h; for cell number change: measured here: cell count max response, cells fed with added oleic acid
Outline: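 Drosophila S3 cells loaded with oleic acid (400 uM, as added) and compounds at several concentrations; lipid droplets imaged by 488-nm laser-scanning cytometry, 500–530 nm intensity and object ratio to cell channel. Percent activity normalized to 20 uM Triacsin C.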

[1] = measured here: cell number channel AC50, cells fed with added oleic acid
[2] = measured here: lipid fluorescence (Fed channel) AC50, cells fed with added oleic acid

SMILES	cell number change [%]	AC50 [1]	AC50 [2]
CCS(=O)(=O)Nc1cccc(C(=C2CCCCC2)c2cnc[nH]2)c1	29.4	0.146 µM [rising, full curve, poor fit]	0.517 µM [rising, full curve]
Cc1cc(C)cc(N2C(=O)NC(=O)/C(=C\c3cccn3-c3ccc(Cl)cc3)C2=O)c1	-41	6.51 µM [falling, full curve]	–
Cc1cc(-c2ccccc2)cc(C)[n+]1Cc1ccccc1	-27.2	–	16.4 µM [rising, single point]
COC(=O)C1=C(c2ccc(OCc3ccccc3)cc2)C[C@@H]2CC[C@H]1N2C(=O)NCc1ccc(OC)c(OC)c1	-26.3	3.66 µM [falling, single point]	23.1 µM [falling, single point]
Clc1ccc2c(N3CCNCC3)ccnc2c1	6.92	–	16.4 µM [falling, partial curve]
CN(C)C1(CNC(=O)Nc2ccc(Cl)c(Cl)c2)CCCCC1	9.21	–	5.62 µM [rising, single point]
CC(C)CCNC(=O)c1c(N)n(CC2CCCO2)c2nc3ccccc3nc12 (stereo not given)	-21.2	–	1.46 µM [rising, partial curve]
COc1ccc(Cn2c(N)c(C(=O)NCc3ccco3)c3nc4ccccc4nc32)cc1	-32	16.4 µM [falling, partial curve, poor fit]	–
O=c1[nH]c(=S)n(C2CC2)c(O)c1/C=N/N1CCOCC1	-25.4	–	0.291 µM [falling, full curve]
Cc1ccccc1N	3.39	–	0.116 µM [rising, single point]
COc1ccccc1NC1=NCCS1	–	–	18.4 µM [falling, single point]
CC(C)(C)N1Cc2ccccc2C1=N	-7.96	–	–
COc1ccc(C(C)=O)cc1CN1CC=C(c2ccccc2)CC1	2.1	–	6.51 µM [rising, single point]
O=P(O)(O)Cc1c(Cl)cccc1Cl	-14.5	6.51 µM [falling, single point]	1.3 µM [falling, full curve, poor fit]
O=C1CC(=O)N(c2ccc(Cl)cc2Cl)C(=O)N1	-5.55	–	2.31 µM [falling, full curve]
O=C(O)CCCc1ccc(N(CCCl)CCCl)cc1	0.0039	2.06 µM [falling, single point]	3.26 µM [falling, partial curve]
O=[N+]([O-])c1ccc(N2CCNCC2)cc1NCc1ccco1	-37.1	14.6 µM [falling, partial curve, poor fit]	29.1 µM [falling, single point]
CC(C)N1C(=O)CC2(CC[N+](C)(CCOC(=O)C(O)(c3ccccc3)c3ccccc3)CC2)C1=O (stereo not given)	-22.1	0.058 µM [falling, full curve, poor fit]	–
COP(=O)(CC(=O)O)c1ccccc1 (stereo not given)	-61.6	20.6 µM [falling, partial curve, poor fit]	29.1 µM [falling, single point]

SMILES	cell number change [%]	AC50 [1]	AC50 [2]
Nc1c(C(=O)NCCCc2ccccc2)c2nc3ccccc3nc2n1Cc1cccs1	-79.8	23.1 µM [falling, single point]	1.46 µM [rising, partial curve]
Cc1nnc2ccc(N3CCN(C)CC3)nn12	30	0.206 µM [rising, full curve, poor fit]	–
Cc1nc2ccccc2c(=O)n1-c1cccc(C(F)(F)F)c1	-20.7	–	6.51 µM [rising, single point]
Cc1ccc(C(C)C)c(OCC(=O)N2CCN(CC(=O)N3CCOCC3)CC2)c1	7.07	–	2.06 µM [falling, partial curve, poor fit]
Oc1ccc(/C=N/NP(=S)(c2ccccc2)c2ccccc2)c(O)c1O	54.4	–	–
CCOc1ccc(-n2c(O)c(C=NCCCn3ccnc3)c(=O)[nH]c2=O)cc1	4.74	–	0.0326 µM [falling, full curve]
CC1CCC(N2CCN(C(=O)COc3ccccc3)CC2)CC1 (stereo not given)	8.87	–	29.1 µM [rising, single point]
Clc1ccc(CCNCc2ccncc2)c(Cl)c1	31.2	32.6 µM [rising, single point]	–
O=c1[nH]c(=O)n(Cc2ccco2)c(O)c1C=NCCCn1ccnc1	-92.3	32.6 µM [falling, partial curve]	–
COc1cc2c(cc1OC)C(C(=O)NCCC(C)C)C1CCCCN1C2=O (stereo not given)	-19.1	–	29.1 µM [falling, single point]
Cc1cc(OC(C)C(=O)NCC(O)c2ccccc2)c2c3c(c(=O)oc2c1)CCCC3 (stereo not given)	-6.11	–	29.1 µM [rising, single point]
CC(C)(O)C(=O)Nc1ccc([N+](=O)[O-])c(C(F)(F)F)c1	-9.83	–	0.206 µM [rising, partial curve]
FC(F)(F)/C(=N\P(=S)(N1CCOCC1)N1CCOCC1)N1CCOCC1	-6.97	–	0.651 µM [falling, partial curve, poor fit]
O=c1cccc2n1CC1CNCC2C1 (stereo not given)	-4.88	–	0.326 µM [falling, full curve, poor fit]
CC(=NCc1ccco1)c1c(O)n(C)c(=O)n(C)c1=O	-4.68	–	16.4 µM [falling, single point]
O=C(O)COc1ccccc1/C=C1\C(=O)NC(=O)N(CCC2=CCCCC2)C1=O	-21.4	–	4.11 µM [falling, full curve, poor fit]
CCCCCCn1c(=O)c(C(=O)Nc2c(C)n(C)n(-c3ccccc3)c2=O)c(O)c2ccccc21	3.66	–	20.6 µM [rising, single point]
O=C1CN=C(c2cccc(Br)c2)c2cc(Br)ccc2N1	-40.7	11.6 µM [falling, partial curve]	–
CN1[C@H]2CC[C@@H]1C(C(=O)N1CCOCC1)=C(O)C2	-6.86	–	0.146 µM [falling, full curve, poor fit]

SMILES	cell number change [%]	AC50 [1]	AC50 [2]
O=c1[nH]c(=S)[nH]c(O)c1N=Nc1ccc2c(c1)OCCO2	-13.1	–	29.1 µM [falling, partial curve, poor fit]
Cc1c(C(=O)N2CCC3(CC2)OCCO3)oc2ccccc12	102	6.51 µM [falling, single point]	23.1 µM [rising, single point]
CCOc1cc(CNC(C)C(O)c2ccccc2)cc(Cl)c1OCC (stereo not given)	-27.6	–	14.6 µM [falling, single point]
O=c1[nH]c(=S)[nH]c(O)c1CN1CCCCC1	-27	0.092 µM [falling, full curve, poor fit]	0.13 µM [falling, full curve, poor fit]
COc1ccc2[nH]c3c(c2c1)CCN=C3C	–	–	6.51 µM [rising, single point]
CCc1ccccc1Cn1c(=O)oc2cccnc21	–	0.82 µM [falling, partial curve]	–
CC(C)(C)NS(=O)(=O)c1ccc(OCC(=O)N2CCN(Cc3ccccc3)CC2)cc1	-31.5	20.6 µM [falling, single point]	13 µM [falling, partial curve]
CCCCNC(=O)c1c(N)n(CCCOC)c2nc3ccccc3nc12	-33.7	29.1 µM [falling, single point]	1.3 µM [rising, partial curve, poor fit]
Cc1cnc(-n2c(=S)[nH]c3ccccc3c2=O)s1	11.6	–	1.84 µM [rising, partial curve, poor fit]
CCCCn1c(=O)c(C(=O)Nc2ccccn2)c(O)c2ccccc21	–	–	29.1 µM [rising, single point]
COC(=O)C1=C(c2ccc(F)cc2OCc2ccccc2)C[C@@H]2CC[C@H]1N2C(=O)NCc1cccc(OC)c1	-3.25	1.46 µM [falling, partial curve]	18.4 µM [falling, partial curve]
O=C(NC(=O)N1CCC2(CC1)OCCO2)c1ccc(Cl)cc1	18.5	–	–
COc1ccc(OC)c(-n2c(O)c(C=Nc3c(C)n(C)n(-c4ccccc4)c3=O)c(=O)[nH]c2=S)c1	–	0.82 µM [falling, full curve, poor fit]	0.461 µM [falling, partial curve, poor fit]
COC(=O)C1=C(c2ccc(OC)c(OC)c2)C[C@@H]2CC[C@H]1N2C(=O)NCCO	15.3	–	0.00517 µM [rising, full curve, poor fit]
COc1ccc(-n2c(O)c(C=NCCN3CCN(C(C)=O)CC3)c(=O)[nH]c2=S)cc1	-18.1	–	6.51 µM [rising, single point]
CCCC(C)n1[nH]c(=O)c2c1NC(=O)CSC2c1ccc(OC)cc1 (stereo not given)	0.221	–	0.651 µM [falling, full curve, poor fit]
Cc1cc2c(s1)NC(=O)CN=C2c1cccs1	46.6	0.82 µM [rising, full curve, poor fit]	1.16 µM [rising, full curve]
CN1C(=O)N(C)C(=O)C2(Cc3cc([N+](=O)[O-])ccc3N3CCN(C(=O)c4ccccc4)CC32)C1=O (stereo not given)	-26.7	–	6.51 µM [rising, partial curve]
COc1cc(/C=C/c2nc3ccccc3c(=O)n2-c2cccc(O)c2)ccc1O	-25.4	–	20.6 µM [falling, partial curve, poor fit]

2 of the compounds above, field by field:
CCCCn1c(=O)c(C(=O)Nc2ccccn2)c(O)c2ccccc21
  AC50 [2]: 29.1 µM [rising, single point]
COC(=O)C1=C(c2ccc(F)cc2OCc2ccccc2)C[C@@H]2CC[C@H]1N2C(=O)NCc1cccc(OC)c1
  cell number change [%]: -3.25; AC50 [1]: 1.46 µM [falling, partial curve]; AC50 [2]: 18.4 µM [falling, partial curve]
